The target in assay [1] is yes-associated protein (human (endogenous in HaCaT and primary foreskin keratinocytes)) (UniProt P46937). As to the kind of experiment: co-IP; lysate of primary foreskin keratinocytes; IP with anti-pYAP or anti-YAP antibody and protein-G Dynabeads; controls rabbit IgG alone and input; Western blot. Background: In western blotting, separated proteins are transferred to a membrane and probed.

The chains behind the UniProt entries cited, without tags or fusion partners.
UniProt P46937: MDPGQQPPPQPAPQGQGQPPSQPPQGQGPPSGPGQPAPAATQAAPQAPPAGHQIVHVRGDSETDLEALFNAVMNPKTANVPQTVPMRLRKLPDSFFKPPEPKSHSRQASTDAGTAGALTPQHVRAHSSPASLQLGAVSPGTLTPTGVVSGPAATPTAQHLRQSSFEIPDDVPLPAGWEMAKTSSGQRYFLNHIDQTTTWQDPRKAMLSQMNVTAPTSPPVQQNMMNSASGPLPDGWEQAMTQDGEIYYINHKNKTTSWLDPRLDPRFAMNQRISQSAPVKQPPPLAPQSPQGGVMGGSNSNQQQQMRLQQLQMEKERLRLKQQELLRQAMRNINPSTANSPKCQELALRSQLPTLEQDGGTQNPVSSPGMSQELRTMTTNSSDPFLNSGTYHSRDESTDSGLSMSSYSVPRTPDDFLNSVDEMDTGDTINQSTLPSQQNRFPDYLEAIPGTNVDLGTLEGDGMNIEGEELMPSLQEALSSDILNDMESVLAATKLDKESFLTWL

Assay [2] concerns the target phospho-YAP-S127 (human (endogenous in HaCaT and primary foreskin keratinocytes)) (UniProt P46937). The description is as above.

These are yes or no findings as the source states them, for the method shown. In cells and extracts the contact can be indirect. Some results given as binding are weak or reduced against the parent protein; the word gives no strength.

B1: Plakophilin 1 (protein, UniProt Q13835 1-747)
chain: MNHSPLKTALAYECFQDQDNSTLALPSDQKMKTGTSGRQRVQEQVMMTVKRQKSKSSQSSTLSHSNRGSMYDGLADNYNYGTTSRSSYYSKFQAGNGSWGYPIYNGTLKREPDNRRFSSYSQMENWSRHYPRGSCNTTGAGSDICFMQKIKASRSEPDLYCDPRGTLRKGTLGSKGQKTTQNRYSFYSTCSGQKAIKKCPVRPPSCASKQDPVYIPPISCNKDLSFGHSRASSKICSEDIECSGLTIPKAVQYLSSQDEKYQAIGAYYIQHTCFQDESAKQQVYQLGGICKLVDLLRSPNQNVQQAAAGALRNLVFRSTTNKLETRRQNGIREAVSLLRRTGNAEIQKQLTGLLWNLSSTDELKEELIADALPVLADRVIIPFSGWCDGNSNMSREVVDPEVFFNATGCLRKRLGMRELLALVPQRATSSRVNLSSADAGRQTMRNYSGLIDSLMAYVQNCVAASRCDDKSVENCMCVLHNLSYRLDAEVPTRYRQLEYNARNAYTEKSSTGCFSNKSDKMMNNNYDCPLPEEETNPKGSGWLYHSDAIRTYLNLMGKSKKDATLEACAGALQNLTASKGLMSSGMSQLIGLKEKGLPQIARLLQSGNSDVVRSGASLLSNMSRHPLLHRVMGNQVFPEVTRLLTSHTGNTSNSEDILSSACYTVRNLMASQPQLAKQYFSSSMLNNIINLCRSSASPKAAEAARLLLSDMWSSKELQGVLRQQGFDRNMLGTLAGANSLRNFTSRF
Take B1: the binding entry in assay [1] and in assay [2] was “binds” each time.

Source of the values: article PMC6940936.
